Assay results: publication PMC5687616
These are yes or no findings as the source states them, for the method shown. In cells and extracts the contact can be indirect. Some binding calls cover weakened binding; strength is not graded here.

Amino acid sequences for entries named in this document (tags omitted).
UniProt Q15583: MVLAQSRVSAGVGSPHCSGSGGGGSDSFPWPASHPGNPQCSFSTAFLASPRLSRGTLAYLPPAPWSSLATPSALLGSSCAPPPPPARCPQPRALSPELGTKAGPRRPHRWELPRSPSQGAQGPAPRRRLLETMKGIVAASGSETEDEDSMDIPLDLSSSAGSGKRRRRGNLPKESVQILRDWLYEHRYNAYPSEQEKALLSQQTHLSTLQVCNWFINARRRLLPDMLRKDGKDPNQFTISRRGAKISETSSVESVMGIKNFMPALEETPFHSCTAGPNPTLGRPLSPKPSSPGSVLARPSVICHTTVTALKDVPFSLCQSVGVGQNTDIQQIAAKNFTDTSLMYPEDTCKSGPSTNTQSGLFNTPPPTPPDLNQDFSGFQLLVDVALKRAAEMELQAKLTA

Experiments:
[1] = target: T1, SIN3A (human (endogenous in MDA-MB-231 and D3H2LN)) (UniProt Q96ST3); experiment: proximity ligation; PLA of SIN3A and TGIF1 in MDA-MB-231 cells, untreated or treated with SCR or SID peptide (2.5 μM, 24 or 72 hours); signals per cell in the nucleus counted
T1 sequence: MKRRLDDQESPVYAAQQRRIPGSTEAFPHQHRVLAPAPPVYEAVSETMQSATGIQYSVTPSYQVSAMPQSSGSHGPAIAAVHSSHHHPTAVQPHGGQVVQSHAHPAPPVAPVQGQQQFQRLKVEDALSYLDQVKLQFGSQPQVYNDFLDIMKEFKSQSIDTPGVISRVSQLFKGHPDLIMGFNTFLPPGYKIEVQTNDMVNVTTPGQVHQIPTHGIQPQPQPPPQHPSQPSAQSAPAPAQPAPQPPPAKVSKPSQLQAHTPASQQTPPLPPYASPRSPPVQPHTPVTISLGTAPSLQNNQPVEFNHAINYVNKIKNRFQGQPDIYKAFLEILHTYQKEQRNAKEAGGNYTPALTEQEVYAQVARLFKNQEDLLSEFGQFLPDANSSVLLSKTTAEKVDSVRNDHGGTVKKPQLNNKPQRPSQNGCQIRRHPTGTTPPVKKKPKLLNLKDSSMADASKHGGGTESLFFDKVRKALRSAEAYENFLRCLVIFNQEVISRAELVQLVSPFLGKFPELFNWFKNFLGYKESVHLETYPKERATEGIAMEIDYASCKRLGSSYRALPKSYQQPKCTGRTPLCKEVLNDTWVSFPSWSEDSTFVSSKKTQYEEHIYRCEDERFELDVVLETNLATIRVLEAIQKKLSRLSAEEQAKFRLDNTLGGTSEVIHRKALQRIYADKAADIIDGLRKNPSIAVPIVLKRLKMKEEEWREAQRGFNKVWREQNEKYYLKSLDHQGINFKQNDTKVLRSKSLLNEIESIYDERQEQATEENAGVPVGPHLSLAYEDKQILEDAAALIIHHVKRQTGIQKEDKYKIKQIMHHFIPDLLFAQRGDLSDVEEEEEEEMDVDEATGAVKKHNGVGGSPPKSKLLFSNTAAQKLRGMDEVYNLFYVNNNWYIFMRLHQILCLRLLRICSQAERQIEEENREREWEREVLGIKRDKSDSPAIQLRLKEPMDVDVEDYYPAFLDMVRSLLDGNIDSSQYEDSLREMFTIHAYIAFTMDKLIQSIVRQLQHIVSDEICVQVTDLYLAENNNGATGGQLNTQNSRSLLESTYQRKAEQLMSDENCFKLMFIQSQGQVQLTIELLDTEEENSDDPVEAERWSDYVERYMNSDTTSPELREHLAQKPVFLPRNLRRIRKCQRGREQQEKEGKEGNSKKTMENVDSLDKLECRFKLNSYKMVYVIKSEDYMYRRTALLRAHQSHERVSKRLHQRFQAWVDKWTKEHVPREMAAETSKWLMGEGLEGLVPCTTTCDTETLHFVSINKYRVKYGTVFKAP

[2] = target: T1, SIN3A (human (endogenous in MDA-MB-231 and D3H2LN)); experiment: co-IP; nuclear extract of D3H2LN cells, untreated or treated with SCR or SID peptide (2.5 μM, 24 or 72 hours); IP with SIN3A polyclonal antibody (sc 767) and blot for TGIF1, and IP with TGIF1 polyclonal antibody (H-172) and blot for SIN3A

binding [1]: binds
binding [2]: binds
Substance: TGIF1 (from UniProt Q15583 1-401)
